Among the data in the supplement of paper PMC12819154, “High-throughput peptide-centric local stability assay extends protein–ligand identification to membrane proteins, tissues and bacteria” (Nature Structural & Molecular Biology, 2025) are log2 fold change values, retold here.

By UniProt entry, the sequences of proteins in these tests, tags left out. Where a name states a change or a piece, a line headed by the entry shows the natural chain unless it says otherwise.
UniProt Q9BW91: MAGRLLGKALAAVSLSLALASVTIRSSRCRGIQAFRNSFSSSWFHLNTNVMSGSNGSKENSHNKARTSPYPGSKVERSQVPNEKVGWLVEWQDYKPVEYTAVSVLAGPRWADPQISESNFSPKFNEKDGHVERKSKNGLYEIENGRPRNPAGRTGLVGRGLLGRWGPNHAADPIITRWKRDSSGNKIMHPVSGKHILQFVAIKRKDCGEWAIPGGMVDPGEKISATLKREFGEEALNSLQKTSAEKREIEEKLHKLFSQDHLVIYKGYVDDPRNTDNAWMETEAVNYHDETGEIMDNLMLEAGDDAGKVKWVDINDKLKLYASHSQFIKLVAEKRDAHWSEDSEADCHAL
UniProt Q9BVS4: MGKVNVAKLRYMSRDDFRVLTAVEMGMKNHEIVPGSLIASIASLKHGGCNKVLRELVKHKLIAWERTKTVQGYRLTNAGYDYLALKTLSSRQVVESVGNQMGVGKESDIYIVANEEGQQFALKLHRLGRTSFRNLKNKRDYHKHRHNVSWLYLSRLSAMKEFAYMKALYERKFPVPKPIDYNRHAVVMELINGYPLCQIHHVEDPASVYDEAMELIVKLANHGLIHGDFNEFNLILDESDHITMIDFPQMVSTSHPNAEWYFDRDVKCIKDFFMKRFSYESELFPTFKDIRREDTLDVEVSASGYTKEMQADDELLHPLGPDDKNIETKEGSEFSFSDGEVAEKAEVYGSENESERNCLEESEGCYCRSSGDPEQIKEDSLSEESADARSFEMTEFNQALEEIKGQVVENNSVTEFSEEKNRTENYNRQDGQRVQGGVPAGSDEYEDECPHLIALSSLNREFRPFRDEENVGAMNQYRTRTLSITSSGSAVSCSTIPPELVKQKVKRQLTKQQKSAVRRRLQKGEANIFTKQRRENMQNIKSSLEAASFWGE
UniProt Q9BVG4: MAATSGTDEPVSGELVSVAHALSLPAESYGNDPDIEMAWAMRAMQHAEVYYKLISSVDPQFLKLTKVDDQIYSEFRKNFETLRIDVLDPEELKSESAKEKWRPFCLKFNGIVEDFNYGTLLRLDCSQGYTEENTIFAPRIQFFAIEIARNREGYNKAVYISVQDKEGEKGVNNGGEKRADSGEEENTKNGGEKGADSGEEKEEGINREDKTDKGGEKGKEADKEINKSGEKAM
UniProt Q9GZR7: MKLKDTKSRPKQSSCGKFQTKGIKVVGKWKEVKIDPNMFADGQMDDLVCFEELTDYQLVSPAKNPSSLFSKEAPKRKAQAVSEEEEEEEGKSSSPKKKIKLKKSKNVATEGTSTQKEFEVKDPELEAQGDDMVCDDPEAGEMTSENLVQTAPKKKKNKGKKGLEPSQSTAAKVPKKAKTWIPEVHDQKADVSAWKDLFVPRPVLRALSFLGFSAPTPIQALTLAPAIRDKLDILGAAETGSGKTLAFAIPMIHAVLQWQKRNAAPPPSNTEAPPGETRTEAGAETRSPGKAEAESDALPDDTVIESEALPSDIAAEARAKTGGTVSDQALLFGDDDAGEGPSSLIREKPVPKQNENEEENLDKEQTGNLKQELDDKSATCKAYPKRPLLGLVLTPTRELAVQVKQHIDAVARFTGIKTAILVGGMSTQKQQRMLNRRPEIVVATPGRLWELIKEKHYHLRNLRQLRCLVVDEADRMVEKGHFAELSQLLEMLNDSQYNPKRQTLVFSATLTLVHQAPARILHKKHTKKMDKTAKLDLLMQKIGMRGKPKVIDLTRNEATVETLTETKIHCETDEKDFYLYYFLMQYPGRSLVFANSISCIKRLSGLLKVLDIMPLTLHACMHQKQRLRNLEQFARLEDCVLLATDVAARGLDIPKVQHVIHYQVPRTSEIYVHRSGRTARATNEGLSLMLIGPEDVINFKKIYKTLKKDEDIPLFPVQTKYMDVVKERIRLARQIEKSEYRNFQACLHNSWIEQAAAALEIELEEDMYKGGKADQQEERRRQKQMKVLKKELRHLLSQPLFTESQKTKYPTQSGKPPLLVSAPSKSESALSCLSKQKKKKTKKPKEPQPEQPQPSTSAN
UniProt Q9BVJ7: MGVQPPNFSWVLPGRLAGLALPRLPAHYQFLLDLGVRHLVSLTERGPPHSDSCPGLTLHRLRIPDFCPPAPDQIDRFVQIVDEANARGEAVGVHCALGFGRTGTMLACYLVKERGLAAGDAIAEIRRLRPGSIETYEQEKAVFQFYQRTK
UniProt Q9BZV1: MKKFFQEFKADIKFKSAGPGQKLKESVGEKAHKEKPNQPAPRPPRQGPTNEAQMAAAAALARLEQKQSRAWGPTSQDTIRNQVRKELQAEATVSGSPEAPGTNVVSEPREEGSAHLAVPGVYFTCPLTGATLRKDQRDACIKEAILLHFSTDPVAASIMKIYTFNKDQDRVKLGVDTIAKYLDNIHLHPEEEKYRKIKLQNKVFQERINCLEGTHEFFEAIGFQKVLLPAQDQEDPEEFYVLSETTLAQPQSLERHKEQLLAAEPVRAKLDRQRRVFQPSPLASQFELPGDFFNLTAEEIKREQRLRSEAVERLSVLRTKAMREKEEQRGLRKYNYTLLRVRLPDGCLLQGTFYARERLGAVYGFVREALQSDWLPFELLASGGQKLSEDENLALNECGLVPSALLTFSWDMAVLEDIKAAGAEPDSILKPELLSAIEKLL
UniProt Q9GZX9: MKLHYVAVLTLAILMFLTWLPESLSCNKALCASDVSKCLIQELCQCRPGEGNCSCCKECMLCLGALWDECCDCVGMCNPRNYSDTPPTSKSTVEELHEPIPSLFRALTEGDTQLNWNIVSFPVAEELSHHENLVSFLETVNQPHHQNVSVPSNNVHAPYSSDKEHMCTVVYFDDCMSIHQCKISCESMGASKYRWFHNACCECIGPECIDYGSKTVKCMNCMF
UniProt Q9BW85: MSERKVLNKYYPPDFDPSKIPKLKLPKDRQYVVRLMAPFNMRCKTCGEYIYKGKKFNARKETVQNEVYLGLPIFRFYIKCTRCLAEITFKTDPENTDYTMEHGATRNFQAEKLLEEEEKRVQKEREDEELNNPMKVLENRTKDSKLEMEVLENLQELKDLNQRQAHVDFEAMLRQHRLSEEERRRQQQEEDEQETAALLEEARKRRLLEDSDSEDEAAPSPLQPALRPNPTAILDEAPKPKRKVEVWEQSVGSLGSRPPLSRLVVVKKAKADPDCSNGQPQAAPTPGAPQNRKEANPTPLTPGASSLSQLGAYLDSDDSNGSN
UniProt Q9C035: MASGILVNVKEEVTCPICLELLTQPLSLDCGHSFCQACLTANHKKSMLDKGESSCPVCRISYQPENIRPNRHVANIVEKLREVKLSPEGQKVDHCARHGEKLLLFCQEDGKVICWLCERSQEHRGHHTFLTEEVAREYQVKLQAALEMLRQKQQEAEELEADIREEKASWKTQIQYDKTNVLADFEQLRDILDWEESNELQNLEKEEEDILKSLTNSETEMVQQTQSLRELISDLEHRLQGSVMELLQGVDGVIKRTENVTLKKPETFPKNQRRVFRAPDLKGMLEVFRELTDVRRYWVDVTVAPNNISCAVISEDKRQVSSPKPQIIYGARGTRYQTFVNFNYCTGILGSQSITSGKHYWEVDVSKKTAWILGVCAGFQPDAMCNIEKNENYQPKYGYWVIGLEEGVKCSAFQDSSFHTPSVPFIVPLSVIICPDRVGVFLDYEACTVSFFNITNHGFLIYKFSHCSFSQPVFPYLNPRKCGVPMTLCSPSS
UniProt Q9GZM5: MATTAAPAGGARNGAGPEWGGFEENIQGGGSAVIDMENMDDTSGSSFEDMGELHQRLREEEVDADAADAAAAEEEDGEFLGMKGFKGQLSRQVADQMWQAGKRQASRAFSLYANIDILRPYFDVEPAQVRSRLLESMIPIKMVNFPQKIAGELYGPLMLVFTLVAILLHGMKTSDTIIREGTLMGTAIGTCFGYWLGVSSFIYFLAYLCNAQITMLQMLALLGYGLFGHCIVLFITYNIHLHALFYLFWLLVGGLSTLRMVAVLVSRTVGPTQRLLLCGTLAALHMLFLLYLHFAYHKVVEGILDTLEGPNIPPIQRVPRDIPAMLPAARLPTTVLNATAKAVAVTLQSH
UniProt Q9BW27: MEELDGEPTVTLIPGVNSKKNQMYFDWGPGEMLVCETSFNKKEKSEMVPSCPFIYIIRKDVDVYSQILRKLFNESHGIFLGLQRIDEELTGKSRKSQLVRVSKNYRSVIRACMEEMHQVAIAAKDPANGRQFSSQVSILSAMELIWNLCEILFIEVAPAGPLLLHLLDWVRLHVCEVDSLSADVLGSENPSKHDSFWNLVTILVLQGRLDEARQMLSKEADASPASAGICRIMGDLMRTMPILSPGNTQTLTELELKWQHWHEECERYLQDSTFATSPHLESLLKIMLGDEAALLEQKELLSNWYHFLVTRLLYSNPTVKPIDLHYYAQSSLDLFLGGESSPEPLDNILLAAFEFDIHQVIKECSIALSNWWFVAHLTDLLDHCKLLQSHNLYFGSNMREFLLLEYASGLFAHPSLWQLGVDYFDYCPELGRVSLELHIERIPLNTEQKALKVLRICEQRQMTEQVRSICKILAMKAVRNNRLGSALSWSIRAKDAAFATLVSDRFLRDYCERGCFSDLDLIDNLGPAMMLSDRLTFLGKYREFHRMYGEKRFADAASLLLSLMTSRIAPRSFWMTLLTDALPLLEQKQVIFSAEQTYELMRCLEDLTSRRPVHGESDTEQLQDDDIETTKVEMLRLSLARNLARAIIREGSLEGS
UniProt Q9C040: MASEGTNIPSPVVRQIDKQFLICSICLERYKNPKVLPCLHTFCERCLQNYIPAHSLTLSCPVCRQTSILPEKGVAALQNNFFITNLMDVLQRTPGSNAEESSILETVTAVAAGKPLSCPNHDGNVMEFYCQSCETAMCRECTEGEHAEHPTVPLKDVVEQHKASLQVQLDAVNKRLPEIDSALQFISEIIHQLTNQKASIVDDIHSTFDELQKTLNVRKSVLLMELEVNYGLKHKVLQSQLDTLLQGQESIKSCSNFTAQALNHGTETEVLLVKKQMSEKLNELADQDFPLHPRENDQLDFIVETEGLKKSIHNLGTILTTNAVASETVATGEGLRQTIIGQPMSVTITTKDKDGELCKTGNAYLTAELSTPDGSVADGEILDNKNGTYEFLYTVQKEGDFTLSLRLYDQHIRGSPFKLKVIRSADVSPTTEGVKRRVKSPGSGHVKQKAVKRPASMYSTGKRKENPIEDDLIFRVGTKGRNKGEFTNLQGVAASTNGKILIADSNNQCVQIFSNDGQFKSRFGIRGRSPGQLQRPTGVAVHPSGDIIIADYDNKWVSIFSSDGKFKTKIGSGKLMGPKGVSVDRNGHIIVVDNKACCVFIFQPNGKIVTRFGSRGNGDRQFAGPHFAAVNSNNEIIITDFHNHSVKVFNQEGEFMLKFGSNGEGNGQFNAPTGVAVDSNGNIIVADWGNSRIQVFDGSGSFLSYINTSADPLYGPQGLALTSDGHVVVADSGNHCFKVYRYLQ
UniProt Q9BXL7: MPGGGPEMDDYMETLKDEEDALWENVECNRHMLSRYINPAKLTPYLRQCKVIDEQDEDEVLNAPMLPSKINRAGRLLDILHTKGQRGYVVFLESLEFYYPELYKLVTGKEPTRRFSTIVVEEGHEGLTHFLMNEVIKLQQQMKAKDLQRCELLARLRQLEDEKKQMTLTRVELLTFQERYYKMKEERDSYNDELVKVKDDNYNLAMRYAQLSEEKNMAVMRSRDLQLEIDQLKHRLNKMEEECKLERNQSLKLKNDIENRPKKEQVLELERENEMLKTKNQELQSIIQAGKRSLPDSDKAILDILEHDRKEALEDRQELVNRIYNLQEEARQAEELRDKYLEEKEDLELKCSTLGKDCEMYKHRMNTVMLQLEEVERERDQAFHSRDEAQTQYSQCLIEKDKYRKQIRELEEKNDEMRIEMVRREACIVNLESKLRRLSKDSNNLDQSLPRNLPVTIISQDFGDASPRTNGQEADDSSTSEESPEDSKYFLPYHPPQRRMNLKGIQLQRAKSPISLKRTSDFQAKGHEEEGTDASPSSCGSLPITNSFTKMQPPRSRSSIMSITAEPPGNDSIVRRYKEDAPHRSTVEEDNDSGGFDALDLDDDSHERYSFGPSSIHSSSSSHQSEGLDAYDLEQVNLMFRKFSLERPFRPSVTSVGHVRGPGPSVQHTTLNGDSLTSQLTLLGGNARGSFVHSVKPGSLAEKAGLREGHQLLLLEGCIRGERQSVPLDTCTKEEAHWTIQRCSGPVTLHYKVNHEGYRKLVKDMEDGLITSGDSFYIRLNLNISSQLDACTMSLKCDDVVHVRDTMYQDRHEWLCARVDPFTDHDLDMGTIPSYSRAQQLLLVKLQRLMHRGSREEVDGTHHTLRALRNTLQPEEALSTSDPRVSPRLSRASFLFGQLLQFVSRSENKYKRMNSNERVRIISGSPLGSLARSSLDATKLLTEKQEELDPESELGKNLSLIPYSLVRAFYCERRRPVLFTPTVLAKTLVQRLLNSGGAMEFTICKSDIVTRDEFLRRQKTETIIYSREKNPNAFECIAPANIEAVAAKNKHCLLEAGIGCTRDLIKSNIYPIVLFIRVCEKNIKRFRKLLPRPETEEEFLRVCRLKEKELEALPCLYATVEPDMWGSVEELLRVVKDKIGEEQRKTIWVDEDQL

The list shows a part of the results. Most values lie at the level of the controls, where differences are scatter.

Compound in the assay: Cc1nc(Nc2ncc(C(=O)Nc3c(C)cccc3Cl)s2)cc(N2CCN(CCO)CC2)n1 [dasatinib]
Briefly: log2 fold change of tryptic peptide abundance, ligand vs vehicle (limited proteolysis) (log2 ratio); higher = more trypsin-susceptible (destabilized). As to conditions: ligand concentration: 5 uM; sample: K562 cleared lysate.
“OSBPL6 (peptide sequence: YGDYYVWNK, peptide start residue: 720) (UniProt Q9BZF3)”: the log2 fold change was -0.696.

For the target “NUDT9 (peptide sequence: RKDCGEWAIPGGMVDPGEK, peptide start residue: 204) (UniProt Q9BW91)”, the log2 fold change is 0.528.

“TSPYL1 (peptide sequence: GHEPQSFIR, peptide start residue: 360) (UniProt Q9H0U9)”: the log2 fold change was -0.201.

On to “SHARPIN (peptide sequence: LQLSADPERPGR, peptide start residue: 44) (UniProt Q9H0F6)”, for which the log2 fold change came to 0.396.

Regarding “TMEM59 (peptide sequence: LNRYPASSLVVVR, peptide start residue: 288) (UniProt Q9BXS4)”, the log2 fold change is -0.22.

“THUMPD3 (peptide sequence: KINQNSSK, peptide start residue: 148) (UniProt Q9BV44)”: the log2 fold change is 0.225.

Turning to “UniProt Q9BVS4 (peptide sequence: EMQADDELLHPLGPDDK, peptide start residue: 308)”, the log2 fold change amounted to 0.305.

For the target “UniProt Q9BVG4 (peptide sequence: ADSGEEENTKNGGEK, peptide start residue: 179)”, the log2 fold change came out at 0.46.

“TBC1D2 (peptide sequence: ADAEEGIFEIK, peptide start residue: 104) (UniProt Q9BYX2)”: the log2 fold change was determined as 0.904.

On to “DDX24 (peptide sequence: TWIPEVHDQKADVSAWK, peptide start residue: 179) (UniProt Q9GZR7)”, for which the log2 fold change is 0.486.

With “DUSP23 (peptide sequence: LPAHYQFLLDLGVR, peptide start residue: 24) (UniProt Q9BVJ7)”, the log2 fold change worked out at 0.399.

With “UniProt Q9H0M0 (peptide sequence: SILEPDTSNSR, peptide start residue: 309)”, the log2 fold change turned out to be 0.471.

Take “UBXN6 (peptide sequence: EAILLHFSTDPVAASIMK, peptide start residue: 143) (UniProt Q9BZV1)”: the log2 fold change was determined as 0.196.

As to “ACTR6 (peptide sequence: LKGEENTVMIDYVLPDFSTIKK, peptide start residue: 225) (UniProt Q9GZN1)”, the log2 fold change worked out at 0.286.

“DOCK9 (peptide sequence: LFYLDPDAQK, peptide start residue: 338) (UniProt Q9BZ29)”: the log2 fold change is 0.337.

As to “MRPL4 (peptide sequence: VGLADLHPDVFATAPR, peptide start residue: 77) (UniProt Q9BYD3)”, the log2 fold change turned out to be 0.256.

“UBE2O (peptide sequence: KEDKPEGQSPVK, peptide start residue: 888) (UniProt Q9C0C9)”: the log2 fold change was determined as 0.376.

In the case of “NOC4L (peptide sequence: REPTVSSFYVK, peptide start residue: 222) (UniProt Q9BVI4)”, the log2 fold change was 0.253.

For the target “MRPL13 (peptide sequence: LWTPPEDYRL, peptide start residue: 169) (UniProt Q9BYD1)”, the log2 fold change was -0.252.

For “UniProt Q9C0B9 (peptide sequence: ANGLSDPGPLADFREPAVR, peptide start residue: 152)”, the log2 fold change was -0.028.

For the target “UniProt Q9BYV8 (peptide sequence: HIGNPEYLMK, peptide start residue: 6)”, the log2 fold change turned out to be 0.228.

“MRPL9 (peptide sequence: YWLAQQAAK, peptide start residue: 250) (UniProt Q9BYD2)”: the log2 fold change was 0.307.

For the target “TWSG1 (peptide sequence: ALCASDVSK, peptide start residue: 29) (UniProt Q9GZX9)”, the log2 fold change worked out at 0.185.

For the target “UniProt Q9BW85 (peptide sequence: QAHVDFEAMLR, peptide start residue: 164)”, the log2 fold change is 0.0805.

“TRIM5 (peptide sequence: HVANIVEK, peptide start residue: 72) (UniProt Q9C035)”: the log2 fold change is 0.0639.

On to “YIPF3 (peptide sequence: QVADQMWQAGK, peptide start residue: 92) (UniProt Q9GZM5)”, for which the log2 fold change was 0.571.

For the target “UniProt Q9BVC4 (peptide sequence: FWQAHSGICTR, peptide start residue: 26)”, the log2 fold change is -0.0832.

As to “UniProt Q9C0F1 (peptide sequence: ISAEAVGVDISGR, peptide start residue: 151)”, the log2 fold change is 0.0469.

Consider “FAM49A (peptide sequence: VMLETPEYR, peptide start residue: 233) (UniProt Q9H0Q0)”, for which the log2 fold change was -0.0712.

For the target “GTPBP2 (peptide sequence: VGADITVLR, peptide start residue: 134) (UniProt Q9BX10)”, the log2 fold change came to 0.197.

Regarding “NUP85 (peptide sequence: LFNESHGIFLGLQR, peptide start residue: 71) (UniProt Q9BW27)”, the log2 fold change worked out at 0.366.

With “CHID1 (peptide sequence: SQFSDKPVQDR, peptide start residue: 38) (UniProt Q9BWS9)”, the log2 fold change was 0.488.

In the case of “POLR3F (peptide sequence: SNTGLLYR, peptide start residue: 68) (UniProt Q9H1D9)”, the log2 fold change is -0.0893.

On to “RPAP1 (peptide sequence: SIFAQEIAAR, peptide start residue: 150) (UniProt Q9BWH6)”, for which the log2 fold change is -0.0908.

For the target “UniProt Q9C040 (peptide sequence: NGHIIVVDNK, peptide start residue: 586)”, the log2 fold change was -0.472.

Turning to “CARD11 (peptide sequence: LLTEKQEELDPESELGK, peptide start residue: 940) (UniProt Q9BXL7)”, the log2 fold change was -0.203.

As to “LSG1 (peptide sequence: TFFHQENVR, peptide start residue: 595) (UniProt Q9H089)”, the log2 fold change is 0.56.
